Source: US8183296B2, “Pesticide phenyloxy substituted phenylamidine derivatives” (Bayer Cropscience AG, priority 2005, dated 2012)
Some entries share one result that the patent states for a list of compounds. At least one structure is not confirmed: it was looked up by name or label, or the drawing left a doubt.

Legend:
[1] = system: Erysiphe graminis f.sp. hordei; test: In vivo preventive test on Erysiphe graminis (powdery mildew on barley); settings: 1000 ppm of active ingredient, evaluated 7 days after inoculation
Procedure: In Vivo Preventive Test on Erysiphe gramini (Powdery Mildew on Barley)
To produce a suitable preparation of active compound, 1 part by weight of active compound or active compound combination is mixed with the stated amounts of solvent and emulsifier, and the concentrate is diluted with water to the desired concentration.
To test for preventive activity, young plants are sprayed with the preparation of active compound or active compound combination at the stated rate of application.
After the spray coating has dried on, the plants are dusted with spores of Erysiphe graminis f.sp. hordei
The plants are placed in a greenhouse at a temperature of approximately 20° C. and a relative atmospheric humidity of approximately 80% to promote the development of mildew pustules.
(§1) The test is evaluated 7 days after the inoculation. 0% means an efficacy which corresponds to that of the control, while an efficacy of 100% means that no disease is observed.

Sphaerotheca fuliginea = test: In vivo protective test on Sphaerotheca fuliginea (cucumbers); settings: 100 ppm of active ingredient, evaluated 7 days after inoculation
Procedure: In Vivo Protective Test on Sahaerotheca fuliginea (Cucumbers)
(§2) To produce a suitable preparation of active compound, 1 part by weight of active compound is mixed with the stated amounts of solvent and emulsifier, and the concentrate is diluted with water to the desired concentration.
To test for protect activity, young plants are sprayed with the preparation of active compound at the stated rate of application. After the spray coating has dried on, the plants are inoculated with an aqueous spore suspension of Sphaerotheca fuliginea. The plants are then placed in a greenhouse at approximately 23° C. and a relative atmospheric humidity of approximately 70%.
as §1

[2] = system: Puccinia recondita f. Sp. tritici; test: In vivo preventive test on Puccinia recondita f. Sp. tritici (wheat brown rust); settings: 1000 ppm of active ingredient, evaluated 10 days after inoculation
Procedure: In Vivo Preventive Test on Puccinia recondita f. Sp. tritici (Wheat Brown Rust)
as §2
To test for preventive activity, young plants are […]. After the spray coating has dried on, the plants are sprayed with the preparation of active compound at the stated rate of application. The plants remain for 24 hours in an incubation cabinet at 20° C. and a relative atmospheric humidity of 100%.
The plants are placed in a greenhouse at a temperature of approximately 20° C. and a relative atmospheric humidity of approximately 80% to promote the development of rust pustules.
The test is evaluated 10 days after the inoculation. 0% means an efficacy which corresponds to that of the control, while an efficacy of 100% means that no disease is observed.

Alternaria solani = test: In vivo protective test on Alternaria solani (leaf spot of tomato); settings: 500 ppm of active ingredient, evaluated 7 days after inoculation
Procedure: In Vivo Protective Test on Alternaria solani (Leaf Spot of Tomato)
as §2
To test for protective activity, young plants are sprayed with the preparation of active compound at the stated rate of application. After the spray coating has dried on, the plants are inoculated with an aqueous spore suspension of Alternatia solani. The plants remain for one day in an incubation cabinet at approximately 20° C. and a relative atmospheric humidity of 100%. Then the plants are placed in an incubation cabinet at approximately 20° C. and a relative atmospheric humidity of 96%.
The test is evaluated 7 days after the inoculation. 0% means an efficacy which corresponds to that of the control while an efficacy of 100% means that no disease is observed.

Measured: efficacy

CCN(C)C=Nc1cc(Cl)c(Oc2ccc(Cl)c(C(C)(C)C)c2)cc1C [Example 1, N-Ethyl-N-methyl-N′-[4-(3-t-butyl-4-chlorphenoxy)-5-chloro-2-methylphenyl]formamidine]
≥ 70%: all assays above
